Consider one substance from paper PMC2613885.

Sequences of proteins named here, by UniProt entry; tags and fusion partners are left off. Residues count along the entry.
UniProt O55005, residues 26-1651: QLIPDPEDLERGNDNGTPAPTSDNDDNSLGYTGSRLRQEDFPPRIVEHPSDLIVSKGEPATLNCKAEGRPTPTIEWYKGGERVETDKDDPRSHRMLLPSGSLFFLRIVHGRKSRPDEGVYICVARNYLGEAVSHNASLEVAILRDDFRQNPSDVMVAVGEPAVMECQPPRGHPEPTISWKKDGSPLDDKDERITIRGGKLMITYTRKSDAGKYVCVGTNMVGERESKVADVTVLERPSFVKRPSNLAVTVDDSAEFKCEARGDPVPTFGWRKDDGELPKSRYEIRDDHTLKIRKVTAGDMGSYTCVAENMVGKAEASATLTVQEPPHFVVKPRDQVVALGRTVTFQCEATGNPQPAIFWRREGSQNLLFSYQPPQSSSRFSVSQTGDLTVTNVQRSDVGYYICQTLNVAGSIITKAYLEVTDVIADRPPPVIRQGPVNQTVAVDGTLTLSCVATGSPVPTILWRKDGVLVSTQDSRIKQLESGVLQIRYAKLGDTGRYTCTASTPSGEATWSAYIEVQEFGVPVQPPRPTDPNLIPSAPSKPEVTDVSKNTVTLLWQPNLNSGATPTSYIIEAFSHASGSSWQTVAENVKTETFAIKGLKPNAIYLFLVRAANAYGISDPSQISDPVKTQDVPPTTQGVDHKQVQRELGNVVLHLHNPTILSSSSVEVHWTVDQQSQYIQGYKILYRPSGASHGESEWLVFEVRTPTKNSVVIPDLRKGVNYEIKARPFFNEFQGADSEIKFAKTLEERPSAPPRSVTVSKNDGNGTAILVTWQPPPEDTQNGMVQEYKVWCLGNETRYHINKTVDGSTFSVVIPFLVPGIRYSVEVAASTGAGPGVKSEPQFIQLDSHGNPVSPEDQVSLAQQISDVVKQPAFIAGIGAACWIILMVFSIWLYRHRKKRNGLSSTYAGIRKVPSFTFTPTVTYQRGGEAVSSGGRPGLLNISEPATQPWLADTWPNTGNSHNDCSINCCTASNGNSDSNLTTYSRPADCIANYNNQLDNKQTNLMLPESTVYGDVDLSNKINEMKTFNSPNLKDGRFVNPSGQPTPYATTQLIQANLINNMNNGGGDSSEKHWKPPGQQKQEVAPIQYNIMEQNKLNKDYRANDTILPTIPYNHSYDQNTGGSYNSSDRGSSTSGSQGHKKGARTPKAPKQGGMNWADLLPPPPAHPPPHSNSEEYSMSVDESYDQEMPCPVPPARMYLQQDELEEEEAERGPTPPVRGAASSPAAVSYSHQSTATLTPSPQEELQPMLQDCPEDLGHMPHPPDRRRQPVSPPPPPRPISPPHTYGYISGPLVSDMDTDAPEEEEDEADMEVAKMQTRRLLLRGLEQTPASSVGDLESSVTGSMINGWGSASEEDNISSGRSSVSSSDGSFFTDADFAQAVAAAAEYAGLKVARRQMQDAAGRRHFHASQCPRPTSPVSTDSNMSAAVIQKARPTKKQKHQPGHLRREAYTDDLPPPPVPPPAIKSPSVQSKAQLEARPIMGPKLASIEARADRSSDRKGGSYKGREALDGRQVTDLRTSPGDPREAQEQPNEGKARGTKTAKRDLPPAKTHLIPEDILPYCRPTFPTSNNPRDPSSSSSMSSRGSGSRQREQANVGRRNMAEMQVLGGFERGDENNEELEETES

Results are given in words; binding and its absence hold for the method and conditions named. Binding seen in cells or lysates may run through a third protein. Some results given as binding are weak or reduced against the parent protein; the word gives no strength. Tags and fused reporters may be left off the sequences shown.

For this test, the target named is T1, V5-tagged human Robo4 (human) (UniProt Q8WZ75).
T1 sequence: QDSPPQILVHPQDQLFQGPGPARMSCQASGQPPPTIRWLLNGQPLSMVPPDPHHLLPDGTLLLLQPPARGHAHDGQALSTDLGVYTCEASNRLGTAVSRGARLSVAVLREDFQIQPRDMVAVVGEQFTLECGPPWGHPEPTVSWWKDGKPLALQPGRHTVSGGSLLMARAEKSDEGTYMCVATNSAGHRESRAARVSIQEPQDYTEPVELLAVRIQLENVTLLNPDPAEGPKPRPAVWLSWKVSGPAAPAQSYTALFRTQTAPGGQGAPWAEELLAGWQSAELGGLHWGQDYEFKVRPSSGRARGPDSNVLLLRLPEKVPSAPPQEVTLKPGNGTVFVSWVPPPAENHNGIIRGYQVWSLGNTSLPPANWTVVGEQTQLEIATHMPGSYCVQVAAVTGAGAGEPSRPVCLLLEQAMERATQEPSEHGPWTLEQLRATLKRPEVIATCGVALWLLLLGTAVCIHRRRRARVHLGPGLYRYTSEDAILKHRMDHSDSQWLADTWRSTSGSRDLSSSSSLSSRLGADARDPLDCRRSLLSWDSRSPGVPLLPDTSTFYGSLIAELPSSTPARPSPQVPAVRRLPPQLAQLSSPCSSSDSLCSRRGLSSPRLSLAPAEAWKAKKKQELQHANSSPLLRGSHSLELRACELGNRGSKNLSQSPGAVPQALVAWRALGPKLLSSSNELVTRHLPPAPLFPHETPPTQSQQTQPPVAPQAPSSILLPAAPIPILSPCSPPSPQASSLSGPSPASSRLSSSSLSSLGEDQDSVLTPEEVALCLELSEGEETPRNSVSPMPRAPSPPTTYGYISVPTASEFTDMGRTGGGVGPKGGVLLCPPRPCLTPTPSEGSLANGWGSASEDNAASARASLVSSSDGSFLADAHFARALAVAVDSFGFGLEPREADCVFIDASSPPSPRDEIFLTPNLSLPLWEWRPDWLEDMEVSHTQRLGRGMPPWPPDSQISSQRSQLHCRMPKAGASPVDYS
Nature of the test: co-IP; HA-rat Robo1 with V5-human Robo4 (IP V5, blot HA) or with mouse Robo4 (IP HA, blot mouse Robo4 antibody), transfected alone or together in HEK293T; RIPA lysates.

Regarding “HA-tagged rat Robo1 (from UniProt O55005 26-1651) (receptor)”, the binding entry is given as “binds”.
